Experimental findings from PubChem BioAssay AID2685 (National Center for Advancing Translational Sciences (NCATS), 2010) are described below.

The list shows a part of the results. Further columns of the screen follow, without active or inactive calls. Most of these compounds were active or inconclusive in the main read-out, so they are no random draw. Potencies come from curve fits of mixed quality, noted in brackets.

This assay is described as follows: qHTS Assay for Lipid Storage Modulators in Drosophila S3 Cells.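 For cell number change: cells counted by Cell Tracker Red CMTPX staining in the red channel.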 To be noted: BODIPY lipid droplet fluorescence, 18-24 h; for cell number change: measured here: cell count max response, cells fed with added oleic acid. In a few lines:
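Laser-scanning cytometry quantifies lipid droplet accumulation (500–530 nm total intensity; droplet/cell object ratio) in oleic acid-fed (400 uM added) Drosophila S3 cells treated with a concentration series. 20 uM Triacsin C defined 100% inhibition.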
(In qHTS, concentration-response curves come from the screen itself.)

Where [1] appears, read: measured here: lipid fluorescence (Fed channel) AC50, cells fed with added oleic acid.
Where [2] appears, read: measured here: cell number channel AC50, cells fed with added oleic acid.

Regarding `CC(C)(C)C1CCC(=NNC(=O)c2ccc(Br)o2)CC1` (centres undefined), the cell number change amounted to 19.2%. For the same compound, the AC50 under setting [1] is 0.00517 µM [rising, full curve, poor fit].

`COc1cccc(NC(=O)c2ccc3c(c2)N(CC(=O)N2CCCCC2)C(=O)C(C)(C)O3)c1`: the cell number change stood at 11.7%. In addition, under setting [1], the AC50 is 0.13 µM [falling, full curve, poor fit].

Take `CCC(CC)c1nnc(NC(=O)CN2C(=O)c3ccccc3C2=O)s1`: the cell number change is -2.14%.

Regarding `COc1ccc(-n2nnnc2/C=C\Nc2ccc(C)cc2)cc1`, the cell number change was determined as 19.4%. Moreover, under setting [1], the AC50 is 0.13 µM [falling, full curve, poor fit].

On to `Nc1ccccc1Nc1ccccc1`, for which the cell number change is -47.3%. Also, the AC50 under setting [2] is 23.1 µM [falling, single point]. Besides, the AC50 under setting [1] is 7.31 µM [falling, partial curve].

As to `Cc1ccc(CNC(=O)C2CCC(=O)N(CCc3ccccc3)C2)s1` (centres undefined), the cell number change was found to be 8.24%. The AC50 under setting [1] was 6.51 µM [rising, single point].

For `Cc1cc(C)nc(Sc2nc(Cl)nc(N(c3ccccc3)c3ccccc3)n2)n1`, the cell number change is -46.6%. Also, the AC50 under setting [2] was 29.1 µM [falling, single point]. The AC50 under setting [1] is 29.1 µM [falling, single point].

On to `CCC(C)Nc1c([N+](=O)[O-])cc(C)cc1[N+](=O)[O-]` (centres undefined), for which the cell number change was -8.33%. In addition, under setting [1], the concentration at half-maximal activity (AC50) was 29.1 µM [falling, single point].

On to `CC1CC(C)CN(C(=O)C2CC(=O)N(c3ccc4c(c3)OCCO4)C2)C1` (centres undefined), for which the cell number change turned out to be 12.8%. Besides, the AC50 under setting [1] was 0.326 µM [rising, partial curve, poor fit].

On to `COCCCNc1nc(N)c([N+](=O)[O-])c(NCc2ccccc2)n1`, for which the cell number change is -45.9%. In addition, the AC50 under setting [2] was 4.61 µM [falling, full curve].

Regarding `Cc1c(NC(=S)Nc2ccc(Cl)cc2)c(=O)n(-c2ccccc2)n1C`, the cell number change is -1.87%. Also, under setting [2], the AC50 was 4.11 µM [falling, single point]. For the same compound, under setting [1], the AC50 was 3.26 µM [falling, single point].

On to `COc1ccc(CCNC(=O)CCc2nnc(Cc3ccc4c(c3)OCO4)o2)c(OC)c1`, for which the cell number change turned out to be 7.92%. Also, under setting [1], the AC50 is 29.1 µM [rising, single point].

`COc1cccc(C2N(Cc3ccccc3)C(=O)C2(F)F)c1OC` (centres undefined): the cell number change was -26.9%. Moreover, the concentration at half-maximal activity (AC50) under setting [1] was 0.206 µM [rising, full curve].

Turning to `O=c1cc(CSc2ccc(Cl)cc2)nc2nc[nH]n12`, the cell number change is -2.09%. Also, the AC50 under setting [1] is 32.6 µM [rising, single point].

As to `CC(NC(=O)c1csc2ccccc12)C1CCCO1` (centres undefined), the cell number change is -178%. In addition, under setting [2], the AC50 is 29.1 µM [falling, partial curve].

In the case of `COC(=O)c1ccc(NC(=O)c2ccc3c(c2)OCO3)cc1`, the cell number change is 14%. Also, the AC50 under setting [1] is 1.03 µM [rising, full curve, poor fit].

In the case of `CC(NC(=O)c1ccccc1Cl)C(=O)O` (centres undefined), the cell number change was -12.4%. Under setting [1], the AC50 was 23.1 µM [falling, partial curve].

In the case of `N#Cc1ccsc1NC(=O)COc1ccc(-c2nnco2)cc1`, the cell number change worked out at 37.3%. For the same compound, the AC50 under setting [2] was 29.1 µM [rising, single point]. Moreover, the AC50 under setting [1] was 2.06 µM [rising, full curve, poor fit].

As to `CCCCN1C(=O)C(=O)N(CC(=O)c2cc(C)n(C3CC3)c2C)C1=O`, the cell number change is 11.4%.

In the case of `CCn1cc(C(=O)NCc2ccccn2)c(=O)c2cc(S(=O)(=O)N3CCCCC3)ccc21`, the cell number change was -2.38%.

For the compound `CCOc1ccc(NC(=O)CSC(N)=O)cc1`, the cell number change amounted to 3.35%.

Consider `CC(=O)c1ccc(NC(=O)C2CCCN2S(=O)(=O)c2cccc3cccnc23)cc1` (centres undefined), for which the cell number change was -36.9%. Also, under setting [2], the AC50 is 1.16 µM [falling, full curve]. Under setting [1], the AC50 was 1.03 µM [falling, full curve].

For `COc1ccc(C2C(Oc3ccccc3C)C(=O)N2Cc2ccc(F)cc2)cc1OC` (centres undefined), the cell number change turned out to be 118%. Under setting [2], the AC50 was 20.6 µM [rising, partial curve]. Moreover, the AC50 under setting [1] is 32.6 µM [rising, single point].

Consider `CC1CC(=O)N(CC(=O)Nc2ccc3c(c2)OCO3)c2ccccc2S1` (centres undefined), for which the cell number change came out at 38.2%. In addition, the AC50 under setting [2] was 1.16 µM [rising, partial curve]. Further, under setting [1], the AC50 is 0.731 µM [rising, full curve].

Regarding `COc1ccc(C2=NOC(C(=O)N3CCN(C(=O)c4ccco4)CC3)C2)cc1OC` (centres undefined), the cell number change is -2.09%.

Regarding `CC(=O)Oc1ccc(-c2cccc(C(=O)NCCO)c2)cc1`, the AC50 under setting [2] was 5.17 µM [falling, partial curve] and the AC50 under setting [1] was 0.13 µM [falling, full curve, poor fit].

In the case of `O=C(Nc1sc2c(c1C(=O)O)CCCC2)C(=O)N1CCOCC1`, the AC50 under setting [1] was 29.1 µM [rising, single point].

Consider `CCOC(=O)N1CCc2c(sc3c2c(=O)n(Cc2ccccc2)c(=O)n3CC(=O)NCCOC)C1`, for which the cell number change is 30%. Further, the AC50 under setting [1] was 0.013 µM [rising, full curve, poor fit].

Regarding `O=C(Nc1nnc(-c2cccnc2)o1)c1cccc([N+](=O)[O-])c1`, the cell number change is -12.5%. Further, the AC50 under setting [1] is 32.6 µM [falling, single point].

Take `Cc1ccc(NC(=O)c2oc(=O)c3ccccc3c2-c2ccccc2)c(C)c1`: the AC50 under setting [1] is 1.46 µM [rising, full curve].

For `COc1cc(C(=O)Nc2ccc3ccccc3c2)cc(OC)c1OC`, the cell number change is -3.51%.

In the case of `O=C(CCNC(=O)OCc1ccccc1)NC1CCCCC1`, the cell number change is -34.8%. Under setting [2], the concentration at half-maximal activity (AC50) was 3.26 µM [falling, partial curve, poor fit]. Under setting [1], the AC50 is 0.146 µM [falling, full curve, poor fit].

Regarding `CCCc1ccc(C(=O)NNC(=O)c2ccc(Br)cc2)cc1`, the cell number change turned out to be 16%. The AC50 under setting [1] is 0.651 µM [rising, full curve].

As for `COc1ccc(C(=O)C(C)N(C(=O)c2ccc(Cl)cc2Cl)N2C(=O)C3C4C=CC(C4)C3C2=O)cc1` (centres undefined), the cell number change was -23.8%. For the same compound, the AC50 under setting [1] is 29.1 µM [falling, single point].

For `CC(=O)O[C@]1(C(C)=O)CC[C@H]2[C@@H]3C=C(Cl)C4=CC(=O)CC[C@]4(C)[C@H]3CC[C@@]21C`, the cell number change was -12.2%.

In the case of `COc1ccc2[nH]c(=O)c(C(c3nnnn3C(C)(C)C)N(Cc3ccco3)CC3CCCO3)cc2c1` (centres undefined), the cell number change was found to be 2.17%. The AC50 under setting [2] was 0.58 µM [falling, single point]. The AC50 under setting [1] is 0.58 µM [falling, single point].

Take `O=C(CSc1nccc(-c2cccs2)n1)Nc1cccc(Cl)c1Cl`: the cell number change was -39.4%. Under setting [1], the AC50 is 6.51 µM [rising, partial curve, poor fit].

By AC50 is commonly meant the concentration giving half of the maximal activity seen. A higher AC50 goes with weaker potency.
